Measured values published in doi:10.1101/463919.
Results are given in words; binding and its absence hold for the method and conditions named. Some results given as binding are weak or reduced against the parent protein; the word gives no strength. Where a sequence is shown, tags or fusion partners need not be part of it.

Biological target: T1, TOFU-6, recombinant (HA-His- or GST-tagged) (C. elegans) (UniProt Q09293)
T1 sequence: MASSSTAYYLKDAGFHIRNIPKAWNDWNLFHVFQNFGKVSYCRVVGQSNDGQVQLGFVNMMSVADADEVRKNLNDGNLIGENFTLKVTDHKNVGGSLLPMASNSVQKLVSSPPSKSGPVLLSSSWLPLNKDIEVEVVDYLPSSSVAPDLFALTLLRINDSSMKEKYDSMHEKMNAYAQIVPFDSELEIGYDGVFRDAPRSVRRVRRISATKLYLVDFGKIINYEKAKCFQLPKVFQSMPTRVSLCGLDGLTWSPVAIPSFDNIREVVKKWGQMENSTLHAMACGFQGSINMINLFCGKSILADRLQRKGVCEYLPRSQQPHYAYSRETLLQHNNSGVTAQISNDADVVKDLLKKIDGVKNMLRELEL
Assay: pull-down

binding: binds
B1: IFE-3, recombinant (HA-His- or GST-tagged) (protein, UniProt O61955 1-251)
chain: MSTSVAENKALSASGDVNASDASVPPELLTRHPLQNRWALWYLKADRNKEWEDCLKMVSLFDTVEDFWSLYNHIQSAGGLNWGSDYYLFKEGIKPMWEDVNNVQGGRWLVVVDKQKLQRRTQLLDHYWLELLMAIVGEQFDEYGDYICGAVVNVRQKGDKVSLWTRDATRDDVNLRIGQVLKQKLSIPDTEILRYEVHKDSSARTSSTVKPRICLPAKDPAPVKEKGPAATTSPSNPGTEATGTSPATPTP
